# Measurements reported in the supplement of paper PMC7858590.
# “And” between values parts separate entries of the source, which are not always exact repeats. Equal values may be shown once. ± gives the standard deviation of the averaged measurements. The full ranking holds about 3,800 compounds; the median of “cell shape (eccentricity) Z-score vs DMSO control” is about 1.1, and the lowest 2% start at about -4.7. The list shows a part of the results.
# Test system: human monocyte-derived macrophages (M0)
# Test: cell shape (eccentricity) Z-score vs DMSO control; higher = more elongated, M2-like morphology
# Details: 20 µM; 24 h; macrophage state: M0 (M-CSF)
row,Compound,cell shape (Z-score)
1,COc1ccc(/C=C2\Oc3cc(O)cc(O)c3C2=O)cc1O,-0.178
2,CN1C2CC[C@H]1C[C@@H](OC(=O)C(O)c1ccccc1)C2 (stereo partly specified),-0.751
3,CS(=O)(=O)Oc1ccc2c(NC(N)=O)c(C(=O)c3ccc(Cl)cc3Cl)oc2c1,3.52
4,CC1(C)C2CC[C@]3(C)C(C(=O)C=C4[C@H]5C[C@@](C)(C(=O)O)CC[C@]5(C)CC[C@]43C)[C@@]2(C)CC[C@@H]1O (stereo partly specified),0.344
5,COc1ccccc1N1CCN(CC(O)COc2cccc3ccccc23)CC1 (stereo unspecified),2.28
6,CC(O)(CC(=O)O)CC(=O)OCC1OC(Oc2c(-c3ccc(O)cc3)oc3cc(O)cc(O)c3c2=O)C(O)C(O)C1O (stereo unspecified),-0.287 ± 1.1
7,CN(C)CCCNc1c2c(=O)n(C)c(=O)nc-2n(C)c2ccccc12,-2.4
8,C[C@]12CCC(=O)C=C1CCC1C2C(=O)C[C@@]2(C)C1CC[C@]2(O)C(=O)CO (stereo partly specified),-0.324
9,CCC[C@H](NC(=O)/C(C#N)=C/c1cccc(Br)n1)c1ccccc1,-4.73
10,COc1cc(OC)c(C(=O)CCCN2CCCC2)c(OC)c1,-0.326
11,CC1Nc2ccc(Cl)cc2S(=O)(=O)N1 (stereo unspecified),-3.56
12,CCC(=O)c1ccc(O)cc1,-0.827
13,COc1cc2c3cc1Oc1cc(ccc1O)C[C@@H]1c4c(cc(OC)c(O)c4Oc4ccc(cc4)C[C@@H]3N(C)CC2)CC[N+]1(C)C,2.6
14,Oc1ccc(Cl)c2cccnc12,2.18
15,COc1cc(C(=O)N2CCC(N3CCN(C)CC3)CC2)ccc1Nc1ncc2c(n1)N(C)c1ccccc1C(=O)N2C,8.88
16,Cc1ccsc1C(=CCCN1CCC[C@@H](C(=O)O)C1)c1sccc1C,0.0539
17,CCCCC(=O)O[C@]1(C(=O)CO)CCC2C3CCC4=CC(=O)CC[C@]4(C)C3[C@@H](O)C[C@@]21C (stereo partly specified),-1.46
18,O=c1[nH]cc(F)c(=O)[nH]1,0.695 and 1.21
19,CC1(C)CCC(C)(C)c2cc(C(=O)Nc3ccc(C(=O)O)cc3)ccc21,9.3
20,CN(C)CC[C@H](CSc1ccccc1)Nc1ccc(S(=O)(=O)NC(=O)c2ccc(N3CCN(Cc4ccccc4-c4ccc(Cl)cc4)CC3)cc2)cc1[N+](=O)[O-],7
21,CN(C)CCCN1c2ccccc2Sc2ccccc21,-2.99
22,Cc1ccc(-c2ncc(Cl)cc2-c2ccc(S(C)(=O)=O)cc2)cn1,-0.727
23,COC(=O)C1=CO[C@@H](O[C@@H]2O[C@H](CO)[C@@H](O)[C@H](O)[C@H]2O)[C@@H]2[C@@](C)(O)[C@@H](O)C[C@]12O,1.24

# Grouped by structure, those above with four or more nitrogen atoms.
row,Compound,cell shape (Z-score)
7,CN(C)CCCNc1c2c(=O)n(C)c(=O)nc-2n(C)c2ccccc12,-2.4
15,COc1cc(C(=O)N2CCC(N3CCN(C)CC3)CC2)ccc1Nc1ncc2c(n1)N(C)c1ccccc1C(=O)N2C,8.88
20,CN(C)CC[C@H](CSc1ccccc1)Nc1ccc(S(=O)(=O)NC(=O)c2ccc(N3CCN(Cc4ccccc4-c4ccc(Cl)cc4)CC3)cc2)cc1[N+](=O)[O-],7

# (further entries)

row,Compound,cell shape (Z-score)
1,N#Cc1cc2nc(O)c(O)nc2cc1[N+](=O)[O-],-1.55
2,Nc1ccc(S(=O)(=O)c2ccc(N)cc2)cc1,3.62
3,O=C(O)c1c(O)cc(OC2OC(CO)C(O)C(O)C2O)cc1/C=C/c1ccccc1 (stereo unspecified),4.21
4,OC(c1ccccc1)C1CCN(CCc2ccccc2)CC1 (stereo unspecified),1.31
5,CC(C)(O)CC[C@@H](O)[C@](C)(O)[C@H]1CC[C@@]2(O)C3=CC(=O)[C@@H]4C[C@@H](O)[C@@H](O)C[C@]4(C)C3CC[C@]12C (stereo partly specified),1.59
6,COC1=CC(=O)O[C@@H](CCc2ccccc2)[C@H]1O,0.785 ± 1.3
7,COc1ccc(-c2cc(=O)c3c(O)cc(O)cc3o2)cc1O,5.34
8,CN(C)CCCN1c2ccccc2CCc2ccc(Cl)cc21,1.86
9,CC(C)=CCc1c2c(c3occ(-c4ccc(O)c(O)c4)c(=O)c3c1O)C=CC(C)(C)O2,0.747
10,O=c1cc(-c2ccc(O)c(O)c2)oc2cc(O)c(C3OC(CO)C(O)C(O)C3O)c(O)c12 (stereo unspecified),-0.519
11,CC(C)=CCC/C(C)=C/CCC1(C)Oc2c(c(O)cc3c2CN(C(CCC(=O)O)C(=O)O)C3=O)CC1O (stereo unspecified),0.11
12,COc1cc(C2OCC3(OC4OC(CO)C(O)C(O)C4O)C(c4ccc(O)c(OC)c4)OCC23)ccc1O (stereo unspecified),3.4
13,CC(C)(O)CCC(=O)C(C)(O)C1C(O)CC2(C)C3CC=C4C(CC(O)C(OC5OC(CO)C(O)C(O)C5O)C4(C)C)C3(C)C(=O)CC12C (stereo unspecified),-2.09
14,O=C1CN2Cc3c(ccc(Cl)c3Cl)N=C2N1,-1.23
15,CC1=CC(=O)C(C(C)C)=CC1=O,-0.564
16,O=[N+]([O-])c1cccc2cn[nH]c12,4.42
17,CC(C)CC1NC(=O)C2CCCN2C1=O (stereo unspecified),2.84
18,Cc1onc(-c2ccccc2Cl)c1C(=O)N[C@@H]1C(=O)N2[C@@H]1SC(C)(C)[C@@H]2C(=O)O,7.79
19,C[C@]12CCC3c4ccc(O)cc4CCC3C1CC[C@@H]2OC(=O)CCC1CCCC1 (stereo partly specified),2.17
20,COC(=O)C1CC2=CC(=O)CCC2(C)C23OC2CC2(C)C(CCC24CCC(=O)O4)C13 (stereo unspecified),0.516
21,O=C1OC(c2ccc(O)cc2)(c2ccc(O)cc2)c2ccccc21,1.01
22,CC(=Cc1ccc(C(=O)O)cc1)c1ccc2c(c1)C(C)(C)CCC2(C)C,7.79
23,Nc1ncnc(Nc2ccc(Cl)cc2)n1,1.09
